Laboratory results reported in patent US7838676B2, “Beta-secretase modulators and methods of use” (Amgen Inc., priority 2005, dated 2010).
Some entries share one result that the patent states for a list of compounds.

The chains behind the UniProt entries cited, without tags or fusion partners. Residues count along the entry.
UniProt P56817, 46-501, species assumed: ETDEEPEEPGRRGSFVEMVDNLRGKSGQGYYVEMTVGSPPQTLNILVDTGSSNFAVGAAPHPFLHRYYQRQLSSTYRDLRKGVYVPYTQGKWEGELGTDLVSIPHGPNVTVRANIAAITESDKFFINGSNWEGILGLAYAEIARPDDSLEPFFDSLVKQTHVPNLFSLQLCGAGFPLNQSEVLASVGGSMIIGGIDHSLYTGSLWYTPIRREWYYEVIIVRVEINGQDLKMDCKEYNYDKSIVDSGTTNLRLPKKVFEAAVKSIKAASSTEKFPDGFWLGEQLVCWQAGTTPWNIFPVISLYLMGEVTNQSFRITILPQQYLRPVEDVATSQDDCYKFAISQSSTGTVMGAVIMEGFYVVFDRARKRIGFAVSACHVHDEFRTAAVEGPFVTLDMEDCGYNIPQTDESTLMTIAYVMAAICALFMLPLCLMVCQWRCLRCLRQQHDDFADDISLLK

Molecular target: BACE (Homo sapiens, UniProt P56817)
Experiment: In Vitro Enzymatic BACE FRET (Fluorescence Resonance Energy Transfer) Assay
Format: biochemical
Conditions: enzyme 0.2 nM, FRET substrate 50 nM, pH 4.2

IC50 [µM] | Compound
≤ 5 | O=C(N[C@@H](Cc1ccccc1)[C@H](O)CN[C@H]1CC2(CCC2)Oc2ccc(F)cc21)c1ccc(F)c(N2CCCC2=O)c1 [Example 118, 4-fluoro-N-((1S,2R)-3-(((4S)-6-fluoro-3,4-dihydrospiro[chromene-2,1′-cyclobutan]-4-yl)amino)-2-hydroxy-1-(phenylmethyl)propyl)-3-(2-oxo-1-pyrrolidinyl)benzamide]
≤ 5 | CC(C)(C)Cc1cnc2c(c1)[C@@H](NC[C@@H](O)[C@H](Cc1ccccc1)NC(=O)c1ccncc1F)CC1(CCC1)O2 [Example 98, N-((1S,2R)-3-(((4′S)-6′-(2,2-dimethylpropyl)-3′,4′-dihydrospiro[cyclobutane-1,2′-pyrano[2,3-b]pyridin]-4′-yl)amino)-2-hydroxy-1-(phenylmethyl)propyl)-3-fluoro-4-pyridinecarboxamide]
≤ 5 | CCc1ccc2c(c1)[C@@H](NC[C@@H](O)[C@H](Cc1ccccc1)NC(=O)c1cc(-c3nccs3)cc(C3CCCC3)c1)CC1(CCCC1)O2 [Example 16, 3-cyclopentyl-N-((2S,3R)-4-((S)-6-ethyl-2,2-spirocyclopentylchroman-4-ylamino)-3-hydroxy-1-phenylbutan-2-yl)-5-(thiazol-2-yl)benzamide]
≤ 5 | COc1ccc2c(c1)[C@@H](NC[C@@H](O)[C@H](Cc1ccccc1)NC(=O)c1cccc(N3CCCC3=O)c1F)CC(C)(C)C2=O [Example 40, N-((1S,2R)-3-(((1S)-3,3-dimethyl-7-(methyloxy)-4-oxo-1,2,3,4-tetrahydro-1-naphthalenyl)amino)-2-hydroxy-1-(phenyl-methyl)propyl)-2-fluoro-3-(2-oxo-1-pyrrolidinyl)benzamide]
≤ 5 | CCc1ccc2c(c1)[C@@H](NC[C@@H](O)[C@H](Cc1ccccc1)NC(=O)c1csc(Br)c1)CC1(CCC1)O2 [Example 20, 5-bromo-N-((2S,3R)-4-((S)-6-ethyl-2,2-spirocyclobutylchroman-4-ylamino)-3-hydroxy-1-phenylbutan-2-yl)thiophene-3-carboxamide]
≤ 5 | CCc1ccc2c(c1)C(NCC(O)C(Cc1ccccc1)NC(=O)c1cc(OC)nc(N3CCC(Cc4ccccc4)C3)c1)CC1(CCCC1)O2 [Example 179, 2-(3-benzylpyrrolidin-1-yl)-N-((2S,3R)-4-((S)-6-ethyl-2,2-spirocyclopentylchroman-4-ylamino)-3-hydroxy-1-phenylbutan-2-yl)-6-methoxyisonicotinamide]
≤ 5 | CCc1ccc2c(c1)[C@@H](NC[C@@H](O)[C@H](Cc1ccccc1)NC(=O)c1cc(-c3ccco3)nc3ccccc13)CC1(CCC1)O2 [Example 202, N-((1S,2R)-3-(((4S)-6-ethyl-3,4-dihydrospiro[chromene-2,1′-cyclobutan]-4-yl)amino)-2-hydroxy-1-(phenylmethyl)propyl)-2-(2-furanyl)-4-quinolinecarboxamide]
≤ 5 | CCc1ccc2c(c1)[C@@H](NC[C@@H](O)[C@H](Cc1ccccc1)NC(=O)c1cc(-n3cccn3)cc3cc[nH]c13)CC1(CCCC1)O2 [Example 166, N-((2S,3R)-4-((S)-6-ethyl-2,2-spirocyclopentylchroman-4-ylamino)-3-hydroxy-1-phenylbutan-2-yl)-5-(1H-pyrazol-1-yl)-1H-indole-7-carboxamide]
≤ 5 | CCc1ccc2c(c1)[C@@H](NC[C@@H](O)[C@H](Cc1ccccc1)NC(=O)c1ccc(C)cc1)CC1(CCC1)O2 [Example 18, N-((2S,3R)-4-((S)-6-ethyl-2,2-spirocyclobutylchroman-4-ylamino)-3-hydroxy-1-phenylbutan-2-yl)-4-methylbenzamide]
≤ 5 | CC(C)(C)Cc1cnc2c(c1)[C@@H](NC[C@@H](O)[C@H](Cc1ccccc1)NC(=O)c1ccc3ncn(CCc4ccccc4)c3c1)CC1(CCC1)O2 [Example 55, N-((1S,2R)-3-(((4′S)-6′-(2,2-dimethylpropyl)-3′,4′-dihydrospiro[cyclobutane-1,2′-pyrano[2,3-b]pyridin]-4′-yl)amino)-2-hydroxy-1-(phenylmethyl)propyl)-1-(2-phenylethyl)-1H-benzimidazole-6-carboxamide]
≤ 5 | CCc1ccc2c(c1)C(NCC(O)C(Cc1ccccc1)NC(=O)c1cc(-c3cccc(F)c3)nc(N3CCCC(C)C3)c1)CC1(CCCC1)O2 [Example 192, N-((2S,3R)-4-((S)-6-ethyl-2,2-spirocyclopentylchroman-4-ylamino)-3-hydroxy-1-phenylbutan-2-yl)-2-(3-fluorophenyl)-6-(3-methylpiperidin-1-yl)isonicotinamide]
≤ 5 | CC(C)Nc1cc(N2CCCCS2(=O)=O)cc(C(=O)N[C@@H](Cc2ccccc2)[C@@H](O)CN[C@H]2CC3(CCC3)Oc3ncc(CC(C)(C)C)cc32)c1F [Example 70, N-((1S,2S)-3-(((4′S)-6′-(2,2-dimethylpropyl)-3′,4′-dihydrospiro[cyclobutane-1,2′-pyrano[2,3-b]pyridin]-4′-yl)amino)-2-hydroxy-1-(phenylmethyl)propyl)-5-(1,1-dioxido-1,2-thiazinan-2-yl)-2-fluoro-3-((1-methylethyl)amino)benzamide]
≤ 5 | CCc1ccc2c(c1)[C@@H](NC[C@@H](O)[C@H](Cc1ccccc1)NC(=O)c1cc(-c3ccccc3OC)nc3ccccc13)CC1(CCC1)O2 [Example 206, N-((1S,2R)-3-(((4S)-6-ethyl-3,4-dihydrospiro[chromene-2,1′-cyclobutan]-4-yl)amino)-2-hydroxy-1-(phenylmethyl)propyl)-2-(2-(methyloxy)phenyl)-4-quinoline-carboxamide]
≤ 5 | CCc1ccc2c(c1)C(NCC(O)C(Cc1ccccc1)NC(=O)c1cc(OC)nc(N3CCCC(C)C3)c1)CC1(CCC1)O2 [Example 110, N-((2S,3R)-4-((S)-6-ethyl-3,4-dihydrospiro[chromene-2,1′-cyclobutyl)-3-hydroxy-1-phenylbutan-2-yl)-2-methoxy-6-(3-methylpiperidin-1-yl)isonicotinamide]
≤ 5 | CCc1ccc2c(c1)C(NCC(O)C(Cc1ccccc1)NC(=O)c1ccnc(N3CCCC(C)C3)c1)CC1(CCC1)O2 [Example 111, N-((2S,3R)-4-((S)-6-ethyl-3,4-dihydrospiro[chromene-2,1′-cyclobutyl)-3-hydroxy-1-phenylbutan-2-yl)-6-(3-methylpiperidin-1-yl)isonicotinamide]
≤ 5 | COc1cc(C(=O)NC(Cc2ccccc2)C(O)CNC2CC3(CCCC3)Oc3ccc(C(C)C)cc32)cc(N2CCCC(C)C2)n1 [Example 84, N-((2S,3R)-3-hydroxy-4-((S)-6-isopropyl-2,2-spirocyclopentylchroman-4-ylamino)-1-phenylbutan-2-yl)-2-methoxy-6-(3-methylpiperidin-1-yl)isonicotinamide]
≤ 5 | CCc1ccc2c(c1)[C@@H](NC[C@@H](O)[C@H](Cc1ccccc1)NC(=O)c1cc(C(C)C3CCCCC3)cc(C3CCCCN3C(C)=O)c1)CC1(CCCC1)O2 (stereo partly drawn) [Example 1, 3-(1-acetylpiperidin-2-yl)-5-(1-cyclohexylethyl)-N-((2S,3R)-4-((S)-6-ethyl-2,2-spirocyclopentylchroman-4-ylamino)-3-hydroxy-1-phenylbutan-2-yl)benzamide]
≤ 5 | CC(C)(C)Cc1cnc2c(c1)[C@@H](NC[C@@H](O)[C@H](Cc1ccccc1)NC(=O)c1ccc(F)c(N3CCCC3=O)c1)C[C@]1(CCOC1)O2 [Example 43, N-((1S,2R)-3-(((3R,4′S)-6′-(2,2-dimethylpropyl)-3′,4,4′,5-tetrahydrospiro[furan-3,2′-pyrano[2,3-b]pyridin]-4′-yl)amino)-2-hydroxy-1-(phenylmethyl)propyl)-4-fluoro-3-(2-oxo-1-pyrrolidinyl)benzamide]
≤ 5 | CCc1ccc2c(c1)[C@@H](NC[C@@H](O)[C@H](Cc1ccccc1)NC(=O)c1cc(C3CCCC3)cc(N3CCCC3=O)c1)CC(C)(C)O2 [Example 25, 3-cyclopentyl-N-((1S,2R)-3-(((4S)-6-ethyl-2,2-dimethyl-3,4-dihydro-2H-chromen-4-yl)amino)-2-hydroxy-1-(phenylmethyl)propyl)-5-(2-oxo-1-pyrrolidinyl)benzamide]
≤ 5 | CCc1ccc2c(c1)[C@@H](NC[C@@H](O)[C@H](Cc1ccccc1)NC(=O)c1cc(C)nc(N3CCCC(C)(C)C3)c1)CC1(CCCC1)O2 [Example 193, 2-(3,3-dimethyl-1-piperidinyl)-N-((1S,2R)-3-(((4S)-6-ethyl-3,4-dihydrospiro[chromene-2,1′-cyclopentan]-4-yl)amino)-2-hydroxy-1-(phenylmethyl)propyl)-6-methyl-4-pyridinecarboxamide]
≤ 5 | Cn1cnc(C(=O)N[C@@H](Cc2ccccc2)[C@H](O)CN[C@H]2CC3(CCC3)Oc3ccc(Br)cc32)c1 [Example 163, N-((2S,3R)-4-((S)-6-bromo-2,2-spirocyclo-butylchroman-4-ylamino)-3-hydroxy-1-phenylbutan-2-yl)-1-methyl-1H-imidazole-4-carboxamide]
≤ 5 | CCc1ccc2c(c1)C(NCC(O)C(Cc1ccccc1)NC(=O)c1cc(C)nc(N3CCCC(C)C3)c1)CC1(CCCC1)O2 [Example 180, N-((2S,3R)-4-((S)-6-ethyl-2,2-spirocyclopentylchroman-4-ylamino)-3-hydroxy-1-phenylbutan-2-yl)-2-methyl-6-(3-methylpiperidin-1-yl)isonicotinamide]
≤ 5 | CCc1ccc2c(c1)[C@@H](NC[C@@H](O)[C@H](Cc1ccccc1)NC(=O)c1ccc(F)c(N3CCCC3=O)c1)CC(C)(C)O2 [Example 137, N-((1S,2R)-3-(((4S)-6-ethyl-2,2-dimethyl-3,4-dihydro-2H-chromen-4-yl)amino)-2-hydroxy-1-(phenylmethyl)propyl)-4-fluoro-3-(2-oxo-1-pyrrolidinyl)benzamide]
≤ 5 | COc1ccc2c(c1)[C@@H](NC[C@@H](O)[C@H](Cc1ccccc1)NC(=O)c1cc(NC(C)C)cc(N3CCCCS3(=O)=O)c1F)CC(C)(C)C2=O [Example 41, N-((1S,2R)-3-(((1S)-3,3-dimethyl-7-(methyloxy)-4-oxo-1,2,3,4-tetrahydro-1-naphthalenyl)amino)-2-hydroxy-1-(phenylmethyl)propyl)-3-(1,1-dioxido-1,2-thiazinan-2-yl)-2-fluoro-5-((1-methylethyl)amino)benzamide]
